In publication PMC12669790 one finds binding data, which are given here for 1 substance.

Sequences of proteins named here, by UniProt entry; tags and fusion partners are left off.
UniProt P21796: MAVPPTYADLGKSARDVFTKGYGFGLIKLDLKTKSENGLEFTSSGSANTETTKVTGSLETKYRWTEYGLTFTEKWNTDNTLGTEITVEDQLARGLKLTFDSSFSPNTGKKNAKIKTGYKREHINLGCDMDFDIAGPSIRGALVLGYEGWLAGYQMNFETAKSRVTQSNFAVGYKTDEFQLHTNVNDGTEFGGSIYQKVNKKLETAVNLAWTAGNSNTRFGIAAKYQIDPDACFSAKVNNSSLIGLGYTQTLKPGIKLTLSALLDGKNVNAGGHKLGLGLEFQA

The assay has as its target T1, ETS proto-oncogene 1 (ETS1) (human (endogenous in HUVEC)) (UniProt P14921).
T1 sequence: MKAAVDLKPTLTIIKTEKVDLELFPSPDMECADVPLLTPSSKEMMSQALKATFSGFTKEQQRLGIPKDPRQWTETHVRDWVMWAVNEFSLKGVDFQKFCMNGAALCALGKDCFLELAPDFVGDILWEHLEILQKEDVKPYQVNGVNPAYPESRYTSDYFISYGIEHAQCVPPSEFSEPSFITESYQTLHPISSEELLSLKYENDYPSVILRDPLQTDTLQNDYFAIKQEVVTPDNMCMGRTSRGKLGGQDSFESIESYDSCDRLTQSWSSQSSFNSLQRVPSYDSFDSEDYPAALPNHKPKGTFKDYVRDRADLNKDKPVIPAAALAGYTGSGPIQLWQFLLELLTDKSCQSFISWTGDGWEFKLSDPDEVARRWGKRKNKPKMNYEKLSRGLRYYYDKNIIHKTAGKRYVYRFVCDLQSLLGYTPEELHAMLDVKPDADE
Briefly: co-IP; HUVEC lysate (Co-IP kit), target antibody overnight at 4 °C, beads overnight at 4 °C, western blot; cells with LPS, with or without the FASN inhibitor C75. (In general: Immunoblotting shows a protein as a band on a membrane.)

These are yes or no findings as the source states them, for the method shown. Binding seen in cells or lysates may run through a third protein. Some entries that bind do so weakly or less than the wild type.

As to “voltage-dependent anion channel 1 (VDAC1) (from UniProt P21796 1-283)”, the binding result is given as “binds”.
